Experimental data: article PMC9780206
Results are given in words; binding and its absence hold for the method and conditions named. Binding can be weak; no strength is given.

Key:
[1] = target: mature AtUC5 (amino acids 25–152) (A. thaliana) (UniProt Q9C7T2); assay: two-hybrid; library screen (Hybrigenics Services): mature AtUC5 (amino acids 25-152) as bait against a random-primed A. thaliana seedlings cDNA library; colonies selected on medium lacking tryptophan, leucine and histidine with 2 mM 3-aminotriazole
[2] = target: mature AtUC5 (amino acids 25–152) (A. thaliana) (UniProt Q9C7T2); assay: two-hybrid; pairwise assay (Hybrigenics Services): bait in L40deltaGal4 and prey in YHGX13, mated to diploids; streaks of three independent clones on DO-2 (-Trp -Leu) and DO-3 (-Trp -Leu -His) media

| binding [1] | binding [2] | Molecule |
| --- | --- | --- |
| binds | binds | late embryogenesis abundant (LEA) protein-like protein (At5g54370), amino acids 195–337 (from UniProt Q9FG54) (domain or fragment) |
| binds | binds | copper amine oxidase (AtCuAOγ2, At3g43670), amino acids 212–491 (domain or fragment, UniProt Q9M2B9 212-491) VDMDKLEIIKIVDNGPVPVPKSTGTEYRYGFLNETVYMDRVNPMSMEQPDGPSFQVEDGYLVKWANWKFHIKPDQRAGMIISQATVRDSKTGEARSVMYKGFASELFVPNMDPGEGWYSKAYMDAGEFGLGPSSMPLVPLNDCPRNAYYIDGFFASPEGIPILQPNMICLFERYAGDTSWRHSEILLPGVDIRESRAKVTLVARMACSVGNYDYIFDWEFQMDGVIRVTVAASGMLMVKGTAYENVEDLGEKEDDSGPLISENVIGVVHDHFISFHLDMD |
